Values joined by “and” are separate entries in the source; they are usually repeats but may differ in a detail not shown here. Equal entries are not always repeated. The list shows a part of the results. Repeats in this data set agree poorly, so a single value says little.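 HEK293T cells were given each compound shortly before transfection with a reporter in which red mCherry is followed by the SARS-CoV-2 frameshift element and then GFP in the −1 frame, so GFP appears only after frameshifting.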
Test system: HEK293T
Assay: percent viability (nuclei count) relative to control; higher = more viable cells
Settings: 10 µM; 24 h

**Q.** How did the percent viability turn out when `CC[C@H]1OC(=O)C[C@@H](O)[C@H](C)[C@@H](O[C@@H]2O[C@H](C)C[C@H](N(C)C)[C@H]2O)[C@@H](CC=O)C[C@@H](C)C(=O)/C=C/[C@]2(C)O[C@H]2[C@@H]1C` [rosaramicin] was run?
**A.** The percent viability was 175%.

**Q.** `Cc1ncc([N+](=O)[O-])n1CCO` [metronidazole] was tested. Which percent viability did it give?
**A.** Its percent viability is 271% and 209%.

**Q.** For `CCC(=O)O[C@]1(C(=O)CCl)[C@@H](C)C[C@H]2[C@@H]3C[C@H](F)C4=CC(=O)C=C[C@]4(C)[C@@]3(F)[C@@H](O)C[C@@]21C` [Ultravate], which percent viability is on record?
**A.** The percent viability was 166%.

**Q.** For `CN(C)[C@@H]1C(=O)C(C(N)=O)=C(O)[C@@]2(O)C(=O)C3=C(O)c4c(O)ccc(Cl)c4[C@@H](O)[C@H]3C[C@@H]12`, which percent viability is on record?
**A.** Its percent viability is 155%.

**Q.** How did the percent viability turn out when `CC1(C)SCCN(S(=O)(=O)c2ccc(Oc3ccncc3)cc2)[C@H]1C(=O)NO` [prinomastat] was run?
**A.** The percent viability was 342%.

**Q.** `Cc1cc(C(C)(C)CC(C)(C)C)ccc1OCCOCC[N+](C)(C)Cc1ccccc1` [methylbenzethonium chloride] was tested. Which percent viability did it give?
**A.** The percent viability was 142%.

**Q.** How did the percent viability turn out when `CCC1(c2c[nH]cn2)Cc2ccccc2C1` [atipamezole] was run?
**A.** Its percent viability is 429%.

**Q.** For `C[C@H]1O[C@@H](n2cc(F)c(=O)[nH]c2=O)[C@H](O)[C@@H]1O` [doxifluridine], which percent viability is on record?
**A.** Its percent viability is 177%.

**Q.** How did the percent viability turn out when `O=C(CCn1cnc2c(=O)[nH]cnc21)Nc1ccc(C(=O)O)cc1` [leteprinim] was run?
**A.** The percent viability was 57.6%.

**Q.** `CCC(c1ccccc1)c1c(O)c2ccccc2oc1=O` (configuration not stated) [Phenprocoumon] was tested. Which percent viability did it give?
**A.** Its percent viability is 59.5%.

**Q.** `CN1Cc2c(N)cccc2C(c2ccccc2)C1` (configuration not stated) was tested. Which percent viability did it give?
**A.** The percent viability was 146%.

**Q.** With `C#C[C@]1(O)CC[C@H]2[C@@H]3CCC4=CC(=NO)CC[C@@H]4[C@H]3CC[C@@]21CC` (mixture of isomers) [Norelgestromin] as the compound, how does the percent viability read?
**A.** Its percent viability is 309%.
